This is one part of the list.

Chains of the proteins cited; added tags and fusions are not shown. Lines headed by an entry give the natural chain unless they say otherwise; changes in a name come on top.
UniProt Q9BSK2: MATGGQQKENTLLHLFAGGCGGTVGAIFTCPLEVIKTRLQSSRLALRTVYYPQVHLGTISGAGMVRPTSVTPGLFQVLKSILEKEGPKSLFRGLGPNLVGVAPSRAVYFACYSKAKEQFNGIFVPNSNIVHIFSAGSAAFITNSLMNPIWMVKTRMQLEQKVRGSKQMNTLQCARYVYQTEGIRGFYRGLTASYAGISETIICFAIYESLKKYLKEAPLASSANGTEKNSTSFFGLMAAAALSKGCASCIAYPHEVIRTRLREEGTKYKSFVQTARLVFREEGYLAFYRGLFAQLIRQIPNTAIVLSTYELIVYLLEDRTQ
UniProt Q9UBX3: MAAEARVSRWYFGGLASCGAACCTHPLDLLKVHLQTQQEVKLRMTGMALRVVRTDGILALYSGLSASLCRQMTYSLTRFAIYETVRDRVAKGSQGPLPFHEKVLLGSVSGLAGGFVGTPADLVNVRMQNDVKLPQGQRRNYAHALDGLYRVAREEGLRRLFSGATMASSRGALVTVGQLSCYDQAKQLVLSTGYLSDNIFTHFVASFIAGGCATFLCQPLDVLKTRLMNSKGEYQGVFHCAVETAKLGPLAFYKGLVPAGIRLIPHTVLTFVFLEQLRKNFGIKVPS
UniProt Q9HC21: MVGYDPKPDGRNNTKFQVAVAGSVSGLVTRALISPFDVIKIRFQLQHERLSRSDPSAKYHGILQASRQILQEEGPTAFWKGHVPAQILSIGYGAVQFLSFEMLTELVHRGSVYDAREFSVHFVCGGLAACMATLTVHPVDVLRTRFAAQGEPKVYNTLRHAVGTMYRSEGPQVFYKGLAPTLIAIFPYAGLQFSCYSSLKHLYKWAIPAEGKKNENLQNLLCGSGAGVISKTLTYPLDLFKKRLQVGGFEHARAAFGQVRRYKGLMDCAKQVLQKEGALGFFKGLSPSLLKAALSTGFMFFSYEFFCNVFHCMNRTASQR
UniProt O43772: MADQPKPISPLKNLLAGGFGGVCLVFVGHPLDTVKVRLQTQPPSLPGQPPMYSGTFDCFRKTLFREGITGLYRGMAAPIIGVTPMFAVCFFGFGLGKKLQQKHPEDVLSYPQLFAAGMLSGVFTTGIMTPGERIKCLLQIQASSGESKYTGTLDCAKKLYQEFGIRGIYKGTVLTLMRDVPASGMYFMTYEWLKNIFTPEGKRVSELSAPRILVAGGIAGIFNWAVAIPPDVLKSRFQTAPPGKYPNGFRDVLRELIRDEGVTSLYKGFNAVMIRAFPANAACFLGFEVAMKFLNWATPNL
UniProt Q9ULF5: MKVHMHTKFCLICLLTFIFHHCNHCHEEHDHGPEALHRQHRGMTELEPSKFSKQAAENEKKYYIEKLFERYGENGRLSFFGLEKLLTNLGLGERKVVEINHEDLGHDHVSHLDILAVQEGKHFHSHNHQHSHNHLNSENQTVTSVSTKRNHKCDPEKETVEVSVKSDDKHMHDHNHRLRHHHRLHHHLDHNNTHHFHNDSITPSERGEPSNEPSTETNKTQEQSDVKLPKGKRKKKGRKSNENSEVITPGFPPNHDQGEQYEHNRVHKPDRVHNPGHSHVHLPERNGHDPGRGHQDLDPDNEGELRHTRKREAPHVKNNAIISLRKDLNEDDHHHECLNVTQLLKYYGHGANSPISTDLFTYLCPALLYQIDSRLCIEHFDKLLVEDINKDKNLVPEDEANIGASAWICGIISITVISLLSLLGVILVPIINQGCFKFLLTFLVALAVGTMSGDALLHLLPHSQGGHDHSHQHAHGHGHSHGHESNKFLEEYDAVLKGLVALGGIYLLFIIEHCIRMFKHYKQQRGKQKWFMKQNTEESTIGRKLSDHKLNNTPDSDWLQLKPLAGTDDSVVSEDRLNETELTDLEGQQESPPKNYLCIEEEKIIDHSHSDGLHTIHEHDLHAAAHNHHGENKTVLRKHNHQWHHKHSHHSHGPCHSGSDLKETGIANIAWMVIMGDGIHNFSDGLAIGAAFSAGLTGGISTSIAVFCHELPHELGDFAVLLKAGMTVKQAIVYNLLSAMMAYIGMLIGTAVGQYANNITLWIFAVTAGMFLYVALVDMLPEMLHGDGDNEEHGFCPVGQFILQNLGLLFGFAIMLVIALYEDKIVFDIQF
UniProt P43007: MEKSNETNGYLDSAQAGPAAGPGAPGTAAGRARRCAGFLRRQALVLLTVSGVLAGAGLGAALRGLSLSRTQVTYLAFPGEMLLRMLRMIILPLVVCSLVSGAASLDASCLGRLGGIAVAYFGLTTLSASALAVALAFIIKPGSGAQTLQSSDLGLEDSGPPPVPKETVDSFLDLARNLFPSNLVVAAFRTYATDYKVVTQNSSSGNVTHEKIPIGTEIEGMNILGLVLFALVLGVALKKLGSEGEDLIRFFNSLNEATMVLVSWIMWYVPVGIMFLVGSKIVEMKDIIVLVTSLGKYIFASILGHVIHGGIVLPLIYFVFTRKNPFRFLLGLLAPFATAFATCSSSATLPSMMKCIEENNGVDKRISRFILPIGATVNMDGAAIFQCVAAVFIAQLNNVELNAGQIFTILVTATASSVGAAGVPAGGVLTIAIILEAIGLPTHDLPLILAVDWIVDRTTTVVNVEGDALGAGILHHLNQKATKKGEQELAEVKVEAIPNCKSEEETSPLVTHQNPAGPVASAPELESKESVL
UniProt Q9H2D1: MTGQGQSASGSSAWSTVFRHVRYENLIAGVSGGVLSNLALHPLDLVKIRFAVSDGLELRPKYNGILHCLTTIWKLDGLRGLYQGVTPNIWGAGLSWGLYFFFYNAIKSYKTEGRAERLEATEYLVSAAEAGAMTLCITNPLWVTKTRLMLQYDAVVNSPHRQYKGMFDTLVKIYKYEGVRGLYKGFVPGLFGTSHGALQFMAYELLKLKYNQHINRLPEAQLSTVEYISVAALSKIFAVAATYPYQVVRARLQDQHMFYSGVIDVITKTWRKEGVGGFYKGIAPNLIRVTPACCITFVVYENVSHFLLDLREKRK
UniProt Q9BXP2: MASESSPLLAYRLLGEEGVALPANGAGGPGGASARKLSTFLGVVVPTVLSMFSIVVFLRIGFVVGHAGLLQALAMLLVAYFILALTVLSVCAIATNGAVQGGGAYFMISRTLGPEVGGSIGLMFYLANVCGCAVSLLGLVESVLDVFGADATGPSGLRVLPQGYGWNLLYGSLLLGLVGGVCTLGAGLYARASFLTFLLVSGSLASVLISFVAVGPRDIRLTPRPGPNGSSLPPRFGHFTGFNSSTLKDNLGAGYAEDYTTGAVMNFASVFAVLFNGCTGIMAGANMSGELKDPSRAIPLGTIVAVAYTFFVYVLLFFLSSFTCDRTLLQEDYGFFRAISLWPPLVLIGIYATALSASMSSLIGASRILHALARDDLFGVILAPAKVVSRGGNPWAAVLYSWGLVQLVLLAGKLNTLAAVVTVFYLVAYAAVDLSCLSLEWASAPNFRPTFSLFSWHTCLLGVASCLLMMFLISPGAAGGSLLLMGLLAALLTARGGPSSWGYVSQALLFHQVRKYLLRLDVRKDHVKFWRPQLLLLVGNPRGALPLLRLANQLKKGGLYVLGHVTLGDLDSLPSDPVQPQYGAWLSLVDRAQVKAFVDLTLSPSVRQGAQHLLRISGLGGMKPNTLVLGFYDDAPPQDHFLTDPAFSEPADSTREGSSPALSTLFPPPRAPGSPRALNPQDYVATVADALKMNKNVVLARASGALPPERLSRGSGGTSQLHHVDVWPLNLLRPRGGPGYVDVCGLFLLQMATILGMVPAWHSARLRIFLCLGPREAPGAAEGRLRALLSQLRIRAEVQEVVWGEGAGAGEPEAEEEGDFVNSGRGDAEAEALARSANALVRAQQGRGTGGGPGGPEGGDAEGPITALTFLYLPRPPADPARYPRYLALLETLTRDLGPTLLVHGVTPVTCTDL
UniProt Q15758: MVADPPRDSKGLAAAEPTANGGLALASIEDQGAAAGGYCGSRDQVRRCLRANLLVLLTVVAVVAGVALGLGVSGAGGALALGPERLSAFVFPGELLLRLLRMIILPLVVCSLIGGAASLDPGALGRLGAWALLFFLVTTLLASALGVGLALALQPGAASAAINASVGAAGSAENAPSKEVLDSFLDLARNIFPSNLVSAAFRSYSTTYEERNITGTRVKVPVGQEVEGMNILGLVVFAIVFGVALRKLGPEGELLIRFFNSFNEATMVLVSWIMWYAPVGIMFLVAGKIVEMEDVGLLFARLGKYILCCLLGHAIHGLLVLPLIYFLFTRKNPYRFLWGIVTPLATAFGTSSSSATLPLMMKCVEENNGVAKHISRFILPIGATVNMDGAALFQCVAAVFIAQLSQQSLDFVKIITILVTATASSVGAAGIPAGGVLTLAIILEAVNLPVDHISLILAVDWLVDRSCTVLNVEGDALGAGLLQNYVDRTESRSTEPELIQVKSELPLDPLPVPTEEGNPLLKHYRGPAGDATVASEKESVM
UniProt P55011: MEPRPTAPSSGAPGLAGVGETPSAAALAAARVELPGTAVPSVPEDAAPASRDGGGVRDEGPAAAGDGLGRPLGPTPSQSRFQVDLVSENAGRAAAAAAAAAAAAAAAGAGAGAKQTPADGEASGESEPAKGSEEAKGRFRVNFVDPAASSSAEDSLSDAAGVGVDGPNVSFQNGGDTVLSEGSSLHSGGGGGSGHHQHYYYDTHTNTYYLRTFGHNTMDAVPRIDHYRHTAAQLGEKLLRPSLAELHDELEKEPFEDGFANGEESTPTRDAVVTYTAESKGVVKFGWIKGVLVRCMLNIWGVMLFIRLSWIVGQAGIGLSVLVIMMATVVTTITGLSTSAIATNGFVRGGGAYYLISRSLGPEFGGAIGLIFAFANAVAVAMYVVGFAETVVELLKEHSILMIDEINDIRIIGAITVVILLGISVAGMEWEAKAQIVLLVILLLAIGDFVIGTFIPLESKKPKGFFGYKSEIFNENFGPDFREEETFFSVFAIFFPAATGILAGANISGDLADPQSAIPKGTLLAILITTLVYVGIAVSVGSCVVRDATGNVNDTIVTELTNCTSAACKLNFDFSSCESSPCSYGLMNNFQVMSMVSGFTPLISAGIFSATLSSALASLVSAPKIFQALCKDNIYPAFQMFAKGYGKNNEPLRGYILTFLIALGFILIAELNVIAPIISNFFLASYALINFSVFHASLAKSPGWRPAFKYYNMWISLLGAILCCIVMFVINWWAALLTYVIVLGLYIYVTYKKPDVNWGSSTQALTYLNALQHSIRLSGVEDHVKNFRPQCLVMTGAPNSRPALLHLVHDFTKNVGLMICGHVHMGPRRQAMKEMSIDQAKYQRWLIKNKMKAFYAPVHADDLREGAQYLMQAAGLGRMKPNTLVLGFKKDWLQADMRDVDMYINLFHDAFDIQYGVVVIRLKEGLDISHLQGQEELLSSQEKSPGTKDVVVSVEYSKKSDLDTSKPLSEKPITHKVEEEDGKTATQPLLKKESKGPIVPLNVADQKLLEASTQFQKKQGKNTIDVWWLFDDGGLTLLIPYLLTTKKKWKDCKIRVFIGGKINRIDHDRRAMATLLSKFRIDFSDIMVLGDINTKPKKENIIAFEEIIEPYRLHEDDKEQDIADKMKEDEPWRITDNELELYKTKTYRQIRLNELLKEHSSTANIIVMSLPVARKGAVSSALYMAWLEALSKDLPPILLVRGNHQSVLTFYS
UniProt P53794: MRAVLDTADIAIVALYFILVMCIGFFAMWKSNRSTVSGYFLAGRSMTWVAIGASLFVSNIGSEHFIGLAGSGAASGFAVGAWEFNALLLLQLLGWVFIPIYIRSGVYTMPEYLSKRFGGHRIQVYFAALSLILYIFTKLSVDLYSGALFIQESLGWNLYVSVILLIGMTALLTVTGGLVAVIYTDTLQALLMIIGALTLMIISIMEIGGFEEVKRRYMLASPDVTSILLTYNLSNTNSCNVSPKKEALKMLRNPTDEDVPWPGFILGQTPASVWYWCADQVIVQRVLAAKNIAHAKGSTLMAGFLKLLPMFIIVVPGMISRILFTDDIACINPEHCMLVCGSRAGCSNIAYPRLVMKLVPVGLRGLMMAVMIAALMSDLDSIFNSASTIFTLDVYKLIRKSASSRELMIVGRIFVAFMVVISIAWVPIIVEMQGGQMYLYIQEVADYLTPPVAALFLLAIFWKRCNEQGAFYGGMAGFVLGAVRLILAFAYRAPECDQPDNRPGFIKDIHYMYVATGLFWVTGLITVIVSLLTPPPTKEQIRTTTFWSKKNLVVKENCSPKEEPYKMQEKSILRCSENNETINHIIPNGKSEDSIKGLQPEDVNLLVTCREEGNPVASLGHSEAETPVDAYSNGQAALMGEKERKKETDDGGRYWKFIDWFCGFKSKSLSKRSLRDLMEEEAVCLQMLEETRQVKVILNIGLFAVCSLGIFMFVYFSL
UniProt Q9Y619: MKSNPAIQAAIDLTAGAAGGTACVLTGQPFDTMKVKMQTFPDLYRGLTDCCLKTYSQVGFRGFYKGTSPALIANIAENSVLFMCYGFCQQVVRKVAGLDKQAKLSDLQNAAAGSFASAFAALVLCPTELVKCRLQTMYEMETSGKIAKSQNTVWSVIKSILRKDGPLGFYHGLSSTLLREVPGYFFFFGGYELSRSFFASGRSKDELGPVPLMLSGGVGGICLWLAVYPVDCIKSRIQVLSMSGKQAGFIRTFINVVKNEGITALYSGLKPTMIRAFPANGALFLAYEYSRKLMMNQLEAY

Compound in the assay: C1COCCN1CCN2C3=CC=CC=C3N=C2NC(=O)C4=CC(=CC=C4)[N+](=O)[O-] [IRAK-1-4 Inhibitor I]
The experiment in a line: log2 fold change, soluble protein after heating vs DMSO (PISA); higher = thermal stabilisation; K562 cells, 10 uM, 30 min; active = over 0.2 and 3.5 SD of the protein, either way, in both replicates (recomputed). The method, boiled down: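 K562 cells at 2×10^6 cells/mL were treated for 30 min with 10 μM compound, and aliquots were heated for 3 min over 48°C-58°C before pooling. Extraction used PBS with 0.5% NP-40 at 4°C, and soluble protein was the supernatant after 21,000xg for 90 min, measured by TMTpro 16plex LC-MS/MS with channel sums equalised. Thermal stability values, relative to control samples and from duplicates, are log2 fold changes.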
As to SLC25A33 (UniProt Q9BSK2), the log2 fold change is inactive: 0.022.

On to SLC4A7 isoform 7 (UniProt Q9Y6M7), for which the log2 fold change was inactive: -0.042.

Take SLC25A12 (UniProt O75746): the log2 fold change is inactive: 0.03.

As for SLC12A6 isoform 2 (UniProt Q9UHW9), the log2 fold change was inactive: 0.

Regarding SLC39A7 (UniProt Q92504), the log2 fold change is inactive: -0.193.

SLC43A3 isoform 2 (UniProt Q8NBI5): the log2 fold change was inactive: -0.014.

For the target SLC37A4 isoform 2 (UniProt O43826), the log2 fold change was inactive: 0.016.

On to SLC25A11 (UniProt Q02978), for which the log2 fold change was inactive: 0.019.

Take SLC25A21 (UniProt Q9BQT8): the log2 fold change is inactive: 0.043.

Regarding SLC25A10 isoform 2 (UniProt Q9UBX3), the log2 fold change was inactive: 0.009.

SLC25A19 (UniProt Q9HC21): the log2 fold change was inactive: 0.037.

As to SLC2A1 (UniProt P11166), the log2 fold change was inactive: 0.031.

For the target SLC29A1 isoform 2 (UniProt Q99808), the log2 fold change was inactive: 0.023.

Regarding SLC30A9 (UniProt Q6PML9), the log2 fold change was inactive: 0.006.

As for SLC25A20 (UniProt O43772), the log2 fold change was inactive: 0.014.

As to SLC39A10 (UniProt Q9ULF5), the log2 fold change is inactive: 0.031.

On to SLC20A2 (UniProt Q08357), for which the log2 fold change was inactive: 0.028.

Turning to SLC1A4 (UniProt P43007), the log2 fold change was inactive: 0.078.

SLC30A5 (UniProt Q8TAD4): the log2 fold change is inactive: -0.029.

Consider SLC25A3 isoform 2 (UniProt Q00325), for which the log2 fold change was inactive: 0.066.

With SLC7A5 (UniProt Q01650), the log2 fold change is inactive: -0.008.

For the target SLC35B3 (UniProt Q9H1N7), the log2 fold change was inactive: 0.032.

As for SLC7A1 (UniProt P30825), the log2 fold change is inactive: 0.047.

For the target SLC25A40 (UniProt Q8TBP6), the log2 fold change is inactive: 0.006.

With SLC2A3 (UniProt P11169), the log2 fold change is inactive: -0.012.

In the case of SLC26A6 (UniProt Q9BXS9), the log2 fold change is inactive: 0.08.

In the case of SLC25A17 (UniProt O43808), the log2 fold change is inactive: -0.015.

With SLC25A32 (UniProt Q9H2D1), the log2 fold change was inactive: -0.006.

SLC12A9 (UniProt Q9BXP2): the log2 fold change is inactive: 0.112.

Regarding SLC1A5 (UniProt Q15758), the log2 fold change was inactive: 0.035.

In the case of SLC6A8 (UniProt P48029), the log2 fold change is inactive: 0.016.

Take SLC3A2 isoform 3 (UniProt P08195): the log2 fold change was inactive: 0.067.

In the case of SLC25A1 (UniProt P53007), the log2 fold change was inactive: 0.047.

As to SLC20A1 (UniProt Q8WUM9), the log2 fold change is inactive: 0.054.

With SLC12A2 (UniProt P55011), the log2 fold change was inactive: 0.02.

For the target SLC38A10 (UniProt Q9HBR0), the log2 fold change is inactive: 0.011.

SLC5A3 (UniProt P53794): the log2 fold change was inactive: 0.022.

In the case of SLC5A6 (UniProt Q9Y289), the log2 fold change is inactive: 0.004.

As to SLC25A15 (UniProt Q9Y619), the log2 fold change was inactive: 0.018.

These data come from the supplement of paper PMC10849652.
